Out of some 300,000 compounds screened, about 5,400 (1.8%) were called active. The inconclusive results got no clear call from the source; some entries with a clear call stand among them for comparison. Calls follow the shape of the full dose curve; tested in HEK293 cells. Where the call is inconclusive, the potency comes from a doubtful curve fit.
Assay: qHTS for inhibitors of binding or entry into cells for Marburg Virus
Settings: Marburg virus pseudotyped entry inhibition, cell reporter; activity change, negative = inhibition: at 37.8 µM (top of the series) unless noted
% is scaled to controls: 0 for no effect and ±100 for the full control effect; potency is read from the fitted curve at half-maximal effect.

| Structure (SMILES) | Potency | activity change, negative = inhibition |
| --- | --- | --- |
| Clc1ccccc1OCCCCN1CCCC1 | inconclusive: 7.3 µM [inhibitor, partial curve, poor fit] | – |
| O=C(COc1ccc2c(c1)OCO2)Nc1nccs1 | inconclusive: 10 µM [inhibitor, partial curve, poor fit] | – |
| O=C(O)CCC(=O)Nc1ccc(Br)cc1C(=O)c1ccccc1Cl | – | inactive: 2.62% [at 46.1 µM] |
| COc1ccc(CCN(C)Cc2c(O)ccc3cc(Br)ccc23)cc1OC | inconclusive: 11.2 µM [inhibitor, partial curve, poor fit] | – |
| NC(=O)[C@@H]1[C@@H]2C(=O)N(c3ccc(F)cc3)C(=O)[C@@H]2[C@H]2C=Cc3ccccc3N21 | inconclusive: 0.891 µM [inhibitor, partial curve, poor fit] | – |
| Cc1ccc2nc(/C(C#N)=C\c3ccc(OC(=O)c4cccs4)cc3)[nH]c2c1 | inconclusive: 16.4 µM [inhibitor, single point] | – |
| O=C(CC12CC3CC(CC(C3)C1)C2)Nc1ccccc1N1CCOCC1 | inconclusive: 12.6 µM [inhibitor, single point] | – |
| Cc1sc2nc(CSCC(=O)Nc3ccc(Cl)cc3F)[nH]c(=O)c2c1C | – | inactive: -8.88% |
| COc1cc(C(=O)Nc2ccc(NC(=O)c3ccco3)nc2)cc(OC)c1OC | – | inactive: -1.06% [at 46.1 µM] |
| Cc1ccccc1/C=C/c1nc2ccccc2c(=O)[nH]1 | inconclusive: 7.94 µM [inhibitor, partial curve, poor fit] | – |
| COc1cccc(NC(=O)c2c([N+](=O)[O-])cnn2C)c1 | inconclusive: 35.5 µM [activator, single point] | – |
| c1coc(CNc2nc3ccccc3n2CCN2CCOCC2)c1 | – | inactive: 3% |
| CC1NC(=S)N(C2CCCCC2)C1=O (stereo not drawn) | – | inactive: -0.535% [at 46.1 µM] |
| O=c1[nH]nc(SCCS(=O)(=O)c2ccc(F)cc2)n1-c1ccccc1C(F)(F)F | inconclusive: 0.501 µM [inhibitor, full curve, poor fit] | – |
| CCOc1ccc2[nH]c(=O)c(CN(Cc3ccco3)C(=O)c3ccc(Br)cc3)cc2c1 | inconclusive: 7.08 µM [inhibitor, partial curve, poor fit] | – |
| Cc1ccn2cc(C34CC5CC(CC(C5)C3)C4)nc2c1 | inconclusive: 35.5 µM [inhibitor, single point] | – |
| Cc1c(Cl)ccc2sc(N3CCN(C(=O)C4=COCCO4)CC3)nc12 | inconclusive: 35.5 µM [inhibitor, single point] | – |
| COc1ccc(CCNC(=O)c2ccc3c(c2)N(Cc2ccccc2)C(=O)c2ccccc2S3=O)cc1OC (stereo not drawn) | inconclusive: 1 µM [inhibitor, partial curve, poor fit] | – |
| COC(=O)c1ccc(Cl)cc1NC(=O)Nc1nnc(N2CCCC2)s1 | – | inactive: 1.65% [at 46.1 µM] |
| Cc1ccc(C(=O)NCC(=O)Nc2ccc(C)c(S(=O)(=O)Nc3ccc(Cl)cc3)c2)s1 | inconclusive: 0.794 µM [inhibitor, single point] | – |
| O=C(CCNS(=O)(=O)c1c(Cl)cccc1Cl)OCC(=O)c1ccccc1F | inconclusive: 3.55 µM [activator, full curve] | – |
| CS(=O)(=O)Nc1ccc(C2=NN(C(=O)c3ccco3)C(c3ccc(F)cc3)C2)cc1 (stereo not drawn) | inconclusive: 10 µM [inhibitor, single point] | – |
| O=C(N/N=C/c1cccc(Cl)c1)c1c(O)c2c([nH]c1=O)CCCC2 | inconclusive: 35.5 µM [activator, single point] | – |

| Structure (SMILES) | Potency | activity change, negative = inhibition |
| --- | --- | --- |
| NCCCCCc1nnc(SCc2ccccc2Cl)o1 | inconclusive: 7.3 µM [inhibitor, partial curve, poor fit] | – |
| Cc1ccc(S(=O)(=O)NCC2CCCO2)cc1 (stereo not drawn) | – | inactive: 28.6% |
| CC(C)(C)c1ccc(C(=O)N/C(=C\c2ccco2)C(=O)Nc2ccccc2C(=O)O)cc1 | – | inactive: 19.7% [at 46.1 µM] |
| Cc1cc(C)c(C(=O)Cn2nc(C(=O)O)c3ccccc3c2=O)cc1C | – | inactive: 0.158% [at 46.1 µM] |
| Cc1ccsc1CNC1C2CC3CC(C2)CC1C3 (stereo not drawn) | inconclusive: 35.5 µM [inhibitor, single point] | – |
| CC(=O)Nc1ccc(S(=O)(=O)NNC(=O)CCc2ccccc2)cc1 | – | inactive: 6.74% [at 46.1 µM] |
| CCOC(=O)c1c(NC(=O)C(C)Sc2cccc[n+]2[O-])sc2c1CCN(Cc1ccccc1)C2 (stereo not drawn) | inconclusive: 35.5 µM [inhibitor, single point] | – |
| COc1ccc(Cl)cc1NC(=O)NCCCl | – | inactive: 4.64% |
| CS(=O)(=O)c1ccc(C(=O)NCCN2C(=O)S/C(=C\c3cccnc3)C2=O)cc1[N+](=O)[O-] | active: 10.3 µM | – |
| Cc1sc(NC(=O)CSc2ncn(-c3ccccc3)n2)nc1-c1ccccc1 | inconclusive: 29.1 µM [inhibitor, single point] | – |
| CCCCn1cnc2c(SCc3ccccc3Cl)nc(N)nc21 | inconclusive: 35.5 µM [inhibitor, single point] | – |
| CC(=O)NCCc1nc2cc(NC(=O)c3ccc(F)cc3)ccc2n1C | inconclusive: 1.26 µM [activator, single point] | – |
| Cc1ccc(NC(=O)c2ccc(F)cc2)cc1S(=O)(=O)N1CCCCCC1 | active: 7.94 µM | – |
| COc1cccc2cc(/C(C)=N/NC(=O)c3ccco3)oc12 | inconclusive: 3.55 µM [activator, single point] | – |
| COC(=O)c1c[nH]n2c(=O)c(Cl)c(C)nc12 | – | inactive: 9.29% |
| COc1ccc(-c2nnc(SC(C)C(=O)Nc3c(C)n(C)n(-c4ccccc4)c3=O)o2)cc1 (stereo not drawn) | inconclusive: 4.47 µM [activator, full curve, poor fit] | – |
| CC1=[N+](CC(=O)c2ccccc2)CCn2cccc21 | inconclusive: 11.2 µM [activator, partial curve, poor fit] | – |
| CC(=O)Nc1ccc(Cc2ccncc2)cc1 | – | inactive: 9.66% |
| CCCCCC(=O)Nc1ccccc1N1CCN(c2ccccc2)CC1 | inconclusive: 20.6 µM [inhibitor, partial curve, poor fit] | – |
| COC(=O)[C@@]12Cc3ccccc3[C@H]1C[C@H](C)[C@@H](C)N2C(=O)C(F)(F)F | – | inactive: 3.22% [at 14.2 µM] |
| Cc1cc(OCC(=O)NC2CC(C)(C)NC(C)(C)C2)c2c(C)cc(=O)oc2c1 | – | inactive: -27.4% [at 46.1 µM] |
| CCS(=O)(=O)c1ncc(N(Cc2ccccc2)Cc2ccco2)c(C(=O)Nc2cccc(Cl)c2C)n1 | inconclusive: 11.2 µM [inhibitor, partial curve, poor fit] | – |
| COc1ccccc1C(=O)Nc1ccc2nc(SCC(=O)N(C)c3ccccc3)sc2c1 | inconclusive: 25.1 µM [inhibitor, single point] | – |

| Structure (SMILES) | Potency | activity change, negative = inhibition |
| --- | --- | --- |
| NC[C@H]1O[C@@H](n2cnc3c(N)ncnc32)[C@H](O)[C@@H]1O | inconclusive: 6.51 µM [inhibitor, single point] | – |
| Cc1ccc(N=Nc2c(O)c3ccccc3[nH]c2=O)c(S(=O)(=O)N(C)C)c1 | – | inactive: -9.53% |
| CC(=O)c1c(O)ccc2c(-c3ccccc3)cc(=O)oc12 | inconclusive: 35.5 µM [inhibitor, single point] | – |
| Cc1cc(Cl)ccc1N=c1ssnc1Cl | – | inactive: -8.37% |
| COc1ccc(OC)c(CCNC(=O)c2cc3c(s2)-c2c(C)cccc2OC3)c1 | – | inactive: 12.3% [at 46.1 µM] |
| O=C(Nc1ccccc1N1CCN(c2ccccc2)CC1)c1ccccc1F | – | inactive: -1.15% [at 46.1 µM] |
| O=C(/C=C1\SC(=O)N(CC(=O)Nc2ccc(Cl)cc2)C1=O)Nc1ccc(F)cc1 | – | inactive: -22.2% |
| Cc1ccc(NC(=O)Cn2c(=O)n(Cc3ccccc3)c(=O)c3sc4ccccc4c32)cc1 | – | inactive: 2.31% [at 46.1 µM] |
| Cc1ccccc1Oc1nc2c(C)cccn2c(=O)c1/C=C(\C#N)C(=O)NC1CCS(=O)(=O)C1 (stereo not drawn) | inconclusive: 12.6 µM [inhibitor, partial curve, poor fit] | – |
| CCOC(=O)CN1C(=O)[C@]2(OC[C@@H]3Cc4ccccc4[C@H]3C=C2C)c2ccccc21 | – | inactive: -22% [at 14.2 µM] |
| CC(C)Oc1ccccc1-c1nc(SCC(=O)c2ccc(F)cc2)n[nH]1 | inconclusive: 35.5 µM [inhibitor, single point] | – |
| CC(=O)NC12CC3CC(C1)CC(C(=O)Nc1cccc(S(=O)(=O)N4CCCCCC4)c1)(C3)C2 | inconclusive: 0.282 µM [inhibitor, full curve, poor fit] | – |
| COc1ccc([N+](=O)[O-])cc1NC(=S)NC(NC(=O)C(c1ccccc1)c1ccccc1)C(Cl)(Cl)Cl (stereo not drawn) | inconclusive: 20 µM [inhibitor, single point] | – |
| Cc1ccccc1NC(=O)c1cccc(S(=O)(=O)Oc2ccc([N+](=O)[O-])cc2)c1 | inconclusive: 0.058 µM [inhibitor, full curve, poor fit] | – |
| CCC1Sc2ccc(S(=O)(=O)Nc3ccc(OC)c(OC)c3)cc2NC1=O (stereo not drawn) | inconclusive: 1.26 µM [inhibitor, full curve] | – |
| O=C(COC(=O)CCc1nc2ccccc2s1)NC(=O)NCc1ccco1 | inconclusive: 1.41 µM [inhibitor, partial curve, poor fit] | – |
| Cc1cccc(N(C(=O)c2snc(C(N)=O)c2N)C(C(=O)NC2CCCC2)c2ccncc2)c1 (stereo not drawn) | inconclusive: 1.58 µM [inhibitor, partial curve, poor fit] | – |
| COc1ccccc1C(=O)CN1C(=O)NC2(CCc3ccccc32)C1=O (stereo not drawn) | – | inactive: 13.9% |
| CCOC(=O)c1ccc(NC(=O)/C=C/c2cccs2)cc1 | inconclusive: 35.5 µM [inhibitor, single point] | – |
| C/C(N)=C(/C#N)C(=O)CSc1ncnc2ccccc12 | inconclusive: 29.1 µM [inhibitor, single point] | – |
| Cc1ccc(/C(N)=N/OC(=O)c2ccc3c(c2)OCO3)cc1 | inconclusive: 15.8 µM [inhibitor, partial curve, poor fit] | – |
| CCOC(=O)c1ccc(NC(=O)NC2CC3CCC(C2)N3Cc2nnnn2C(C)(C)C)cc1 (stereo not drawn) | inconclusive: 0.58 µM [inhibitor, partial curve, poor fit] | – |

Shown with each value named: part of the list above
Cc1cc(Cl)ccc1N=c1ssnc1Cl
  activity change, negative = inhibition: inactive: -8.37%
COc1ccc(OC)c(CCNC(=O)c2cc3c(s2)-c2c(C)cccc2OC3)c1
  activity change, negative = inhibition: inactive: 12.3% [at 46.1 µM]
O=C(Nc1ccccc1N1CCN(c2ccccc2)CC1)c1ccccc1F
  activity change, negative = inhibition: inactive: -1.15% [at 46.1 µM]

— PubChem BioAssay AID540276 (National Center for Advancing Translational Sciences (NCATS), 2011)
